Data reported in the supplement of paper PMC8728848.
This is one part of the list.

Legend:
Experiment in all cases: glycan array binding signal (z-score within array); higher = stronger binding
Settings in all cases: glycan notation: IUPAC condensed, linker removed
[1] = target: Man(a1-2)Man(a1-3)[Man(a1-2)Man(a1-6)]Man
Summary of the method: (§1)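 Glycan array data came from 3228 arrays in the Consortium for Functional Glycomics database, and only arrays with an available protein sequence were kept. Glycan names were put into IUPAC-condensed notation, and columns mapping to the same glycan were averaged. The binding signal is a within-array Z-score, averaged across arrays of one protein sequence run at different concentrations or buffers and across linkers. A negative Z-score can be read as non-binding.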

[2] = target: Man(a1-2)Man(a1-3)[Man(a1-2)Man(a1-6)]Man(a1-6)[Man(a1-2)Man(a1-2)Man(a1-3)]Man
Summary of the method: as §1

[3] = target: Man(a1-2)Man(a1-3)[Man(a1-2)Man(a1-6)]Man(a1-6)[Man(a1-2)Man(a1-2)Man(a1-3)]Man(b1-4)GlcNAc(b1-4)GlcNAc
Summary of the method: as §1

[4] = target: Man(a1-2)Man(a1-3)[Man(a1-6)]Man(a1-6)[Man(a1-2)Man(a1-3)]Man(b1-4)GlcNAc(b1-4)GlcNAc
Summary of the method: as §1

[5] = target: Man(a1-2)Man(a1-6)[Man(a1-3)]Man(a1-6)[Man(a1-2)Man(a1-2)Man(a1-3)]Man
Summary of the method: as §1

[6] = target: Man(a1-2)Man(a1-6)[Man(a1-3)]Man(a1-6)[Man(a1-2)Man(a1-2)Man(a1-3)]Man(b1-4)GlcNAc(b1-4)GlcNAc
Summary of the method: as §1

Man(a1-3)[Man(a1-6)]Man = target: Man(a1-3)[Man(a1-6)]Man
Summary of the method: as §1

[7] = target: Man(a1-3)[Man(a1-6)]Man(a1-6)[Man(a1-2)Man(a1-3)]Man(b1-4)GlcNAc(b1-4)GlcNAc
Summary of the method: as §1

[8] = target: Man(a1-3)[Man(a1-6)]Man(a1-6)[Man(a1-3)]Man
Summary of the method: as §1

[9] = target: Man(a1-3)[Man(a1-6)]Man(a1-6)[Man(a1-3)]Man(b1-4)GlcNAc(b1-4)GlcNAc
Summary of the method: as §1

[10] = target: Man(a1-3)[Man(a1-6)]Man(b1-4)GlcNAc(b1-4)GlcNAc
Summary of the method: as §1

[11] = target: Man(a1-3)[Man(a1-6)]Man(b1-4)GlcNAc(b1-4)[Fuc(a1-6)]GlcNAc
Summary of the method: as §1

Man(a1-6)Man = target: Man(a1-6)Man
Summary of the method: as §1

Man(b1-4)GlcNAc = target: Man(b1-4)GlcNAc
Summary of the method: as §1

MurNAc(b1-4)GlcNAc = target: MurNAc(b1-4)GlcNAc
Summary of the method: as §1

Neu5Ac(a2-3)Gal = target: Neu5Ac(a2-3)Gal
Summary of the method: as §1

[12] = target: Neu5Ac(a2-3)Gal(b1-3)GalNAc
Summary of the method: as §1

[13] = target: Neu5Ac(a2-3)Gal(b1-3)GalNAc(b1-3)Gal(a1-4)Gal(b1-4)Glc
Summary of the method: as §1

[14] = target: Neu5Ac(a2-3)Gal(b1-3)GalNAc(b1-4)Gal(b1-4)Glc
Summary of the method: as §1

[15] = target: Neu5Ac(a2-3)Gal(b1-3)GalNAc(b1-4)[Neu5Ac(a2-3)]Gal(b1-4)Glc
Summary of the method: as §1

[16] = target: Neu5Ac(a2-3)Gal(b1-3)GalNAc(b1-4)[Neu5Ac(a2-8)Neu5Ac(a2-3)]Gal(b1-4)Glc
Summary of the method: as §1

[17] = target: Neu5Ac(a2-3)Gal(b1-3)GalNAc6S
Summary of the method: as §1

[18] = target: Neu5Ac(a2-3)Gal(b1-3)GlcNAc
Summary of the method: as §1

[19] = target: Neu5Ac(a2-3)Gal(b1-3)GlcNAc(b1-2)Man
Summary of the method: as §1

[20] = target: Neu5Ac(a2-3)Gal(b1-3)GlcNAc(b1-2)Man(a1-3)[GlcNAc(b1-4)][Neu5Ac(a2-3)Gal(b1-3)GlcNAc(b1-2)Man(a1-6)]Man(b1-4)GlcNAc(b1-4)GlcNAc
Summary of the method: as §1

[21] = target: Neu5Ac(a2-3)Gal(b1-3)GlcNAc(b1-2)Man(a1-3)[Neu5Ac(a2-3)Gal(b1-3)GlcNAc(b1-2)Man(a1-6)]Man(b1-4)GlcNAc(b1-4)GlcNAc
Summary of the method: as §1

[22] = target: Neu5Ac(a2-3)Gal(b1-3)GlcNAc(b1-2)[Neu5Ac(a2-3)Gal(b1-3)GlcNAc(b1-4)]Man(a1-6)[Neu5Ac(a2-3)Gal(b1-3)GlcNAc(b1-2)Man(a1-3)]Man(b1-4)GlcNAc(b1-4)GlcNAc
Summary of the method: as §1

[23] = target: Neu5Ac(a2-3)Gal(b1-3)GlcNAc(b1-3)Gal(b1-3)GlcNAc
Summary of the method: as §1

[24] = target: Neu5Ac(a2-3)Gal(b1-3)GlcNAc(b1-3)Gal(b1-4)GlcNAc
Summary of the method: as §1

[25] = target: Neu5Ac(a2-3)Gal(b1-3)GlcNAc(b1-3)GalNAc
Summary of the method: as §1

[26] = target: Neu5Ac(a2-3)Gal(b1-3)GlcNAc(b1-6)GalNAc
Summary of the method: as §1

[27] = target: Neu5Ac(a2-3)Gal(b1-3)GlcNAc6S
Summary of the method: as §1

[28] = target: Neu5Ac(a2-3)Gal(b1-3)[Fuc(a1-4)]GlcNAc
Summary of the method: as §1

[29] = target: Neu5Ac(a2-3)Gal(b1-3)[Fuc(a1-4)]GlcNAc(b1-3)Gal(b1-3)[Fuc(a1-4)]GlcNAc
Summary of the method: as §1

[30] = target: Neu5Ac(a2-3)Gal(b1-3)[Fuc(a1-4)]GlcNAc(b1-3)Gal(b1-4)[Fuc(a1-3)]GlcNAc
Summary of the method: as §1

[31] = target: Neu5Ac(a2-3)Gal(b1-3)[GlcNAc(b1-6)]GalNAc
Summary of the method: as §1

[32] = target: Neu5Ac(a2-3)Gal(b1-3)[Neu5Ac(a2-6)]GalNAc
Summary of the method: as §1

[33] = target: Neu5Ac(a2-3)Gal(b1-3)[Neu5Ac(a2-6)]GlcNAc(b1-3)[Fuc(a1-3)[Gal(b1-4)]GlcNAc(b1-6)]Gal(b1-4)Glc
Summary of the method: as §1

[34] = target: Neu5Ac(a2-3)Gal(b1-3)]Neu5Ac(a2-3)Gal(b1-4)]GlcNAc
Summary of the method: as §1

Neu5Ac(a2-3)Gal(b1-4)Glc = target: Neu5Ac(a2-3)Gal(b1-4)Glc
Summary of the method: as §1

[35] = target: Neu5Ac(a2-3)Gal(b1-4)GlcNAc
Summary of the method: as §1

[36] = target: Neu5Ac(a2-3)Gal(b1-4)GlcNAc(b1-2)Man
Summary of the method: as §1

[37] = target: Neu5Ac(a2-3)Gal(b1-4)GlcNAc(b1-2)Man(a1-3)[GlcNAc(b1-4)][Neu5Ac(a2-3)Gal(b1-4)GlcNAc(b1-2)Man(a1-6)]Man(b1-4)GlcNAc(b1-4)GlcNAc
Summary of the method: as §1

[38] = target: Neu5Ac(a2-3)Gal(b1-4)GlcNAc(b1-2)Man(a1-3)[Neu5Ac(a2-3)Gal(b1-4)GlcNAc(b1-2)Man(a1-6)]Man(b1-4)GlcNAc(b1-4)GlcNAc
Summary of the method: as §1

[39] = target: Neu5Ac(a2-3)Gal(b1-4)GlcNAc(b1-2)Man(a1-3)[Neu5Ac(a2-3)Gal(b1-4)GlcNAc(b1-2)Man(a1-6)]Man(b1-4)GlcNAc(b1-4)[Fuc(a1-6)]GlcNAc
Summary of the method: as §1

B1: EfCBM33A (Enterococcus faecalis), Q838S1 (protein)
chain: MKKSLLTIVLAFSFVLGGAALAPTVSEAHGYVASPGSRAFFGSSAGGNLNTNVGRAQWEPQSIEAPKNTFITGKLASAGVSGFEPLDEQTATRWHKTNITTGPLDITWNLTAQHRTASWDYYITKNGWNPNQPLDIKNFDKIASIDGKQEVPNKVVKQTINIPTDRKGYHVIYAVWGIGDTVNAFYQAIDVNIQ
[1]
  glycan array binding signal (z-score): 0.783
[2]
  glycan array binding signal (z-score): -0.446
[3]
  glycan array binding signal (z-score): -0.525
[4]
  glycan array binding signal (z-score): -0.963
[5]
  glycan array binding signal (z-score): -0.949
[6]
  glycan array binding signal (z-score): -0.399
Man(a1-3)[Man(a1-6)]Man
  glycan array binding signal (z-score): 0.092
[7]
  glycan array binding signal (z-score): 0.75
[8]
  glycan array binding signal (z-score): -2.09
[9]
  glycan array binding signal (z-score): 0.455
[10]
  glycan array binding signal (z-score): 0.206
[11]
  glycan array binding signal (z-score): -0.45
Man(a1-6)Man
  glycan array binding signal (z-score): -0.011
Man(b1-4)GlcNAc
  glycan array binding signal (z-score): -0.603
MurNAc(b1-4)GlcNAc
  glycan array binding signal (z-score): 0.631
Neu5Ac(a2-3)Gal
  glycan array binding signal (z-score): -1.8
[12]
  glycan array binding signal (z-score): -0.07
[13]
  glycan array binding signal (z-score): -1.77
[14]
  glycan array binding signal (z-score): 2.04
[15]
  glycan array binding signal (z-score): -0.378
[16]
  glycan array binding signal (z-score): -0.329
[17]
  glycan array binding signal (z-score): -0.351
[18]
  glycan array binding signal (z-score): -0.334
[19]
  glycan array binding signal (z-score): -0.996
[20]
  glycan array binding signal (z-score): -0.728
[21]
  glycan array binding signal (z-score): -0.513
[22]
  glycan array binding signal (z-score): -0.066
[23]
  glycan array binding signal (z-score): -0.142
[24]
  glycan array binding signal (z-score): -0.199
[25]
  glycan array binding signal (z-score): -0.623
[26]
  glycan array binding signal (z-score): 0.16
[27]
  glycan array binding signal (z-score): 1.01
[28]
  glycan array binding signal (z-score): 0.625
[29]
  glycan array binding signal (z-score): -0.195
[30]
  glycan array binding signal (z-score): 1.65
[31]
  glycan array binding signal (z-score): -1.11
[32]
  glycan array binding signal (z-score): -0.995
[33]
  glycan array binding signal (z-score): -0.325
[34]
  glycan array binding signal (z-score): 1.87
Neu5Ac(a2-3)Gal(b1-4)Glc
  glycan array binding signal (z-score): 0.557
[35]
  glycan array binding signal (z-score): -0.303
[36]
  glycan array binding signal (z-score): 1.51
[37]
  glycan array binding signal (z-score): 0.122
[38]
  glycan array binding signal (z-score): -0.066
[39]
  glycan array binding signal (z-score): 0.062
